In paper PMC7819943, “Rice protein-binding microarrays: a tool to detect cis-acting elements near promoter regions in rice”:
The list shows a part of the results.

Sequences of proteins named here, by UniProt entry; tags and fusion partners are left off.
UniProt Q0JBA9, entry or part of it: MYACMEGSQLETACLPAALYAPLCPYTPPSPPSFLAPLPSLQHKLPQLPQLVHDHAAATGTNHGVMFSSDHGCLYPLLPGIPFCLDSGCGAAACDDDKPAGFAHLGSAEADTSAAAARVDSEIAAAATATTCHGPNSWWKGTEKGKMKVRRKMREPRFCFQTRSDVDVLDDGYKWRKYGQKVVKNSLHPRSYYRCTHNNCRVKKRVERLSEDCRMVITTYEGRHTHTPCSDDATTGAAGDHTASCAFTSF

biological target: OsWRKY34 (Oryza sativa, UniProt Q0JBA9 1-250); test: protein-binding microarray (RPBM); PBS, 2% BSA, 51.3 ng/ul salmon testes DNA, 50 uM zinc acetate, 200 nM TF, 25 C, 1 h; high values mean tight binding; details: protein: recombinant; tags: N-terminal polyhistidine and DsRed monomer fusion (pET32a); label: CyDye5-dUTP incorporated in the synthesized complementary strand; 3' TTTTT single-stranded linker to array surface; dsDNA, one strand shown
How it was run: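 Transcription factors were each fused at the N-terminus to a polyhistidine tag plus DsRed and expressed in E. coli BL21-CodonPlus before Ni–NTA purification. Binding to a double-stranded custom Agilent array was carried out with 200 nM protein at 25 °C for 1 h in PBS, 2% BSA, salmon testes DNA and 50 µM zinc acetate. The binding signal is per-feature fluorescence intensity, in arbitrary units, on an Axon 4000B scanner.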

Sequence	binding signal
CCCCATTTTCTTTGTTTCTACTTCTCTTTCCCTTTCTTGTCGGAGTCACCTAGTGCAG	10700 fluorescence intensity (a.u.)
GTTAATGGAAGCGATTTTTTACTGTATGTTGTGCCGACTCCGGAGTCACCTAGTGCAG	8610 fluorescence intensity (a.u.)
CCTTTTTTTTTCCGAGTGTGTGGCTCTCAGATGGAGTTAGCGGAGTCACCTAGTGCAG	8450 fluorescence intensity (a.u.)
ATTCAACAGTCACCACCAGCTAATCCCTTTCAACTTGCCACGGAGTCACCTAGTGCAG	9840 fluorescence intensity (a.u.)
ATTTTTTCCTTCATTATTTGTTCAGCTCTTGCTTCATGCTCGGAGTCACCTAGTGCAG	10500 fluorescence intensity (a.u.)
GTTTTTGATTCACCGGGTAGGTAAACATTATTGCATTTCTCGGAGTCACCTAGTGCAG	9000 fluorescence intensity (a.u.)
AGGAGGTGTTGTTTCTTGCGATCTTGGGTTGATTGATATGCGGAGTCACCTAGTGCAG	8460 fluorescence intensity (a.u.)
GCTAAACTTGCGATTTCGTCTAGCCGACCTATAATTTTGTCGGAGTCACCTAGTGCAG	8820 fluorescence intensity (a.u.)
GCCGCGCCCGCGTCACCACCGCTACCGCCCGCGCGTCCCTCGGAGTCACCTAGTGCAG	8940 fluorescence intensity (a.u.)
TTCGCTTTGATGGACGGCTCAGATCGGCTCCTAATCCATCCGGAGTCACCTAGTGCAG	9700 fluorescence intensity (a.u.)
TTGCGGCATTGAAGGTGGAGGAGGAGGAGGAGGTGGTGGTCGGAGTCACCTAGTGCAG	8380 fluorescence intensity (a.u.)
CGCCTGTGCAGAGTACTCTGCTTTGTACTCTTTTGTTAAGCGGAGTCACCTAGTGCAG	8540 fluorescence intensity (a.u.)
CAGATAAAAACACTACATACATATAGCTATCATACGCGATCGGAGTCACCTAGTGCAG	8600 fluorescence intensity (a.u.)
GGCCAGAACGGCCCATGAATAATTCCCTGTGGACCAGGCCCGGAGTCACCTAGTGCAG	8070 fluorescence intensity (a.u.)
CACCACTCCCAACGCGTGGGCCACATCCGGGCCATCCAATCGGAGTCACCTAGTGCAG	8480 fluorescence intensity (a.u.)
AATAAACCATGGTGTTTGTATTGGTGTGTTGGTGACTACGCGGAGTCACCTAGTGCAG	8260 fluorescence intensity (a.u.)
TATTATTATTATTTCATTTTTGCTGTTGGGTTGTGAACTACGGAGTCACCTAGTGCAG	8820 fluorescence intensity (a.u.)
TAGCGCTGGGCTGTCACTTTTTTTTGTGTATGAATTATTTCGGAGTCACCTAGTGCAG	9990 fluorescence intensity (a.u.)
GGCTCGTGCACCTGCTCTCGTCTTTTCCACCGCTTTTTTTCGGAGTCACCTAGTGCAG	16800 fluorescence intensity (a.u.)
CACCCCGCGCCCTAATCTCCGTCACGCCCTTCGCAAGCACCGGAGTCACCTAGTGCAG	8590 fluorescence intensity (a.u.)
CCCACCACCACCATCTCCACCTTCGGTTGTCATCTAAATACGGAGTCACCTAGTGCAG	13300 fluorescence intensity (a.u.)

Sequence	binding signal
ACGCCCAAGCATATACTGCCATCCGGGCCCCACCCTACACCGGAGTCACCTAGTGCAG	9850 fluorescence intensity (a.u.)
TTTTACTCTTTTACCCTCCGTAGAACCCTACCAAATTGTCCGGAGTCACCTAGTGCAG	8320 fluorescence intensity (a.u.)
AAACTCGACCCCAGCTCATTCTTTGGTCATTTCACTTTTGCGGAGTCACCTAGTGCAG	9830 fluorescence intensity (a.u.)
GATGTGTAGAACTGTACTTATTTTGGGATGGTGGGAGTATCGGAGTCACCTAGTGCAG	10000 fluorescence intensity (a.u.)
AAAATTGCTCTTCGCTATAATGGCCTTGTTTGGATCCTCCCGGAGTCACCTAGTGCAG	10200 fluorescence intensity (a.u.)
TTTCCTGTCCTCGCTCGCCATCATGGCCGTATAAAAATGTCGGAGTCACCTAGTGCAG	10400 fluorescence intensity (a.u.)
TTAGTTCAGTCACCAATTTGTTACCTCTTAGGATGCTTCTCGGAGTCACCTAGTGCAG	8620 fluorescence intensity (a.u.)
ACATGGGACCCACCACCAAACTTTTTTTTCACGTGGGCCCCGGAGTCACCTAGTGCAG	11300 fluorescence intensity (a.u.)
ATCGTCCACTGATTCCTTCTTCATTCCGCTACATCGATCTCGGAGTCACCTAGTGCAG	8710 fluorescence intensity (a.u.)
AAATCGCCCGGACTGTCAATATTTTCTGCGGCTAATAAAACGGAGTCACCTAGTGCAG	9060 fluorescence intensity (a.u.)
AAAACGCCCAATACGTACACCGCGCCCGCGTCACGTCACCCGGAGTCACCTAGTGCAG	8390 fluorescence intensity (a.u.)
TCTGCAAATTAATAATTGAGCCGTCCATTTCACCATTAGACGGAGTCACCTAGTGCAG	13400 fluorescence intensity (a.u.)
TTTGCGTATTTTTATTGATTCCTCATTTGCATTTTTCAGTCGGAGTCACCTAGTGCAG	11700 fluorescence intensity (a.u.)
GTACCAATTTCACTCATCCATTCCTGATGTCAATTAACTGCGGAGTCACCTAGTGCAG	10200 fluorescence intensity (a.u.)
TCACCATGCCACCTCAACTTTCACCATTAAACAAGAAAACCGGAGTCACCTAGTGCAG	8460 fluorescence intensity (a.u.)
CGTTCCTATCAAATTCCTTTGTTTTTCTCATTCCTTCATTCGGAGTCACCTAGTGCAG	8040 fluorescence intensity (a.u.)
TACACCTCTAATTATCCGCTTCACATGCTCGCTCTCTTCTCGGAGTCACCTAGTGCAG	10400 fluorescence intensity (a.u.)
GGTCATGCTTTGCTCCGCCCACATGTCCCTACTGGCTGCTCGGAGTCACCTAGTGCAG	9170 fluorescence intensity (a.u.)
GTCGTCGTCCTCTTGTGATCTTGTTTTCCCGGCGTCGTGACGGAGTCACCTAGTGCAG	13900 fluorescence intensity (a.u.)
ATTTTTTTTCCCTTGCATCATATACTCCGTATCAAATTATCGGAGTCACCTAGTGCAG	8210 fluorescence intensity (a.u.)
GGTCCAGCTTGTCCCATTGATCTCTCTTCACTGAAATCCACGGAGTCACCTAGTGCAG	10300 fluorescence intensity (a.u.)

Given comma-delimited: entries from further up
Sequence,binding signal
TTTGCGTATTTTTATTGATTCCTCATTTGCATTTTTCAGTCGGAGTCACCTAGTGCAG,11700 fluorescence intensity (a.u.)
GTACCAATTTCACTCATCCATTCCTGATGTCAATTAACTGCGGAGTCACCTAGTGCAG,10200 fluorescence intensity (a.u.)
